{"sequences": {"note": "Chains of the proteins cited; added tags and fusions are not shown. Chains listed by the source or under a name are the forms on record and can include a tag or linker.", "NRSF lambda-H1 clone product (partial NRSF) (Homo sapiens), one chain, as listed by the source": "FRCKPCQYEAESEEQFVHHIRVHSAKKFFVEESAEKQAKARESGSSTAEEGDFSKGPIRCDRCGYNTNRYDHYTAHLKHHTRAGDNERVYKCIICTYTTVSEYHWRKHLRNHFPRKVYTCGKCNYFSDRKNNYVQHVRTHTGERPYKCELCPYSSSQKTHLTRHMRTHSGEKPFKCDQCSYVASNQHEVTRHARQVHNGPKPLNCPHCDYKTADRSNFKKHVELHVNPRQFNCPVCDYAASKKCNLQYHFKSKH"}, "source": "patent US6270990", "key": {"[1]": {"test_system": "NRSF lambda-H1 clone product (partial NRSF) (Homo sapiens)", "assay": "EMSA", "details": "probe with two S36 copies; supershifted by anti-GST-lambdaH1; also bound in library filter screen; protein translated in vitro; protein details: poly-histidine fusion (pRSET B); label: 32P (probe, two tandem copies); letters built from the parent sequence and the stated change"}, "[2]": {"test_system": "NRSF lambda-HZ4 (partial) (Homo sapiens)", "assay": "activity in cells", "details": "PC12 cells, pCAT3-S36++ CAT reporter; without NRSE 1.5 fold at maximum; protein in cells; protein details: vector-provided initiating Met (pcDNA3-ATG); letters built from the parent sequence and the stated change; only the site is given"}}, "note": "The exact form of at least one protein or probe is not confirmed."}
{"sequence": "AGCTGCAAAGCCATTTCAGCACCACGGAGAGTGCCTCTGC (double strand) [S36 (SCG10 NRSE)]", "values": [{"measurement": "binding result", "setting": "[1]", "result": "binds"}, {"measurement": "activity on this sequence", "setting": "[2]", "result": "active"}]}
